Screening data

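Selective DUX4 reporter inhibition in doxycycline-induced 293T-iDUX4 cells, scored as Gaussia percent activity minus Italica percent activity, after a 24-hour treatment. The test concentration is not given here. Percent difference between the Gaussia and Italica channels; more negative values mean more selective suppression of the DUX4 reporter, and higher values mean less activity.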

Values are in %. How 0% and 100% were set is not given here. Common to all entries: measured here: selective DUX4 reporter inhibition. Part of the compounds only, not a random draw; the main read-out is not listed here.

CO[C@H]1CN(C)C(=O)c2cc(NC(=O)Nc3ccc(Cl)c(Cl)c3)ccc2OC[C@H](C)NC[C@H]1C read Gaussia minus Italica difference 2.522%. COc1ccc2c3c(n(C)c2c1)[C@@H](CO)N(Cc1ccc(Cl)cc1)CC31CCN(CC2CC2)CC1 gave Gaussia minus Italica difference 0.7424%. O=C(C[C@@H]1CC[C@@H]2[C@H](COC[C@@H](O)CN2Cc2ccc(Oc3ccccc3)cc2)O1)N1CCOCC1 read Gaussia minus Italica difference -4.209%. For C[C@H]1CN([C@@H](C)CO)C(=O)CCCn2nncc2CO[C@H]1CN(C)Cc1ccc(Cl)c(Cl)c1 the result was Gaussia minus Italica difference -7.961%. O=C(Cc1ccccc1)N1CC[C@@H]2[C@H](CO)Nc3ccc(-c4ccccc4)cc3[C@@H]21 gave Gaussia minus Italica difference 14.24%. For CN(C)C(=O)c1ccc(-c2ccc3c(c2)[C@H]2[C@H](CCN2C(=O)C2CCCC2)[C@@H](CO)N3C)cc1 the result was Gaussia minus Italica difference 19.17%.

O=C(C1CCOCC1)N1C[C@@H]2N[C@H](C1)C2c1ccc(-c2ccccc2F)cc1 (some centres not stated) gave Gaussia minus Italica difference -20.08%. For N#Cc1ccc(-c2ccc(C3[C@@H]4CN(S(=O)(=O)c5ccccc5F)C[C@H]3N4)cc2)cc1 (some centres not stated) the result was Gaussia minus Italica difference -24.1%. O=C(CCN1CCCCC1)N[C@H]1CC[C@H](CC(=O)N2CCC(Cc3ccccc3)CC2)O[C@@H]1CO read Gaussia minus Italica difference -17.72%. COc1ccc2c3c([nH]c2c1)[C@@H](CO)N(Cc1ccncc1)CC31CCN(Cc2ccc(-c3ccccn3)cc2)CC1 gave Gaussia minus Italica difference 17.51%. N#C[C@H]1[C@H](c2ccccc2C2=CCCCC2)[C@H](CO)N1S(=O)(=O)c1ccccc1 read Gaussia minus Italica difference -8.888%. Result for CC(C)CC#Cc1ccc([C@@H]2[C@@H](CO)N3C(=O)CN(S(=O)(=O)c4cccc(F)c4)C[C@H]23)cc1 was Gaussia minus Italica difference -7.231%.

CCC(=O)N1CCC2(CC1)CN(Cc1cccc(Cl)c1)[C@H](CO)c1c2c2ccc(OC)cc2n1C gave Gaussia minus Italica difference -19.05%. COc1ccc(NC(=O)N2CCCCN3[C@H](CO)[C@H](c4ccc(C#CCC(C)C)cc4)[C@H]3C2)cc1 read Gaussia minus Italica difference 1.285%. With O=S(=O)(c1ccc(F)cc1)N1C[C@@H]2N[C@H](C1)C2c1ccc(/C=C/c2ccccc2)cc1 (some centres not stated) the assay gave Gaussia minus Italica difference 7.71%. OC[C@H]1[C@H](c2ccc(-c3ccc(F)cc3)cc2)[C@@H]2CN(CCC(F)(F)F)CCCCN12 read Gaussia minus Italica difference -20.91%. O=C(Nc1cccc(F)c1)N1C[C@@H]2N[C@H](C1)C2c1ccc(-c2cccnc2)cc1 (some centres not stated) read Gaussia minus Italica difference -4.104%. For Cc1ccc(-c2ccc(C3[C@@H]4CN(S(=O)(=O)c5ccccc5)C[C@H]3N4)cc2)cc1 (some centres not stated) the result was Gaussia minus Italica difference -20.24%.

COc1cccc(-c2ccc3c(c2)[C@@H]2[C@@H](CCN2S(=O)(=O)c2ccccc2C)[C@H](CO)N3C)c1 read Gaussia minus Italica difference 35.99%. Result for Fc1cccc(-c2ccc(C3[C@@H]4CN(Cc5cncnc5)C[C@H]3N4)cc2)c1 (some centres not stated) was Gaussia minus Italica difference -14.37%. With Cc1ccccc1S(=O)(=O)N[C@@H]1CC[C@@H](CCn2cc(-c3ccc(F)cc3)nn2)O[C@H]1CO the assay gave Gaussia minus Italica difference -3.686%. Result for OC[C@H]1[C@@H](c2ccc(C#Cc3ccccc3)cc2)[C@H]2CN(CC3CCOCC3)CCCCN21 was Gaussia minus Italica difference -17.88%. N#C[C@@H]1[C@H](c2ccccc2-c2ccc(F)cc2)[C@@H](CO)N1c1ncc(-c2ccccc2)s1 gave Gaussia minus Italica difference 14.29%. COc1cccc(-c2ccc([C@@H]3[C@H](CO)N4CCCCN(C(=O)c5ccc6c(c5)OCO6)C[C@@H]34)cc2)c1 gave Gaussia minus Italica difference 13.22%.

COc1ccc(NC(=O)N2CC(=O)N3[C@H](CO)[C@H](c4ccc(/C=C/c5ccccc5)cc4)[C@H]3C2)cc1 gave Gaussia minus Italica difference -8.87%. O=C(NC1CCC1)[C@H]1[C@H](CO)[C@H]2Cn3c(ccc(/C=C/c4ccccc4)c3=O)[C@H]2N1Cc1ccncc1 read Gaussia minus Italica difference -0.6083%.

2 of the entries, repeated:

- Cc1ccc(-c2ccc(C3[C@@H]4CN(S(=O)(=O)c5ccccc5)C[C@H]3N4)cc2)cc1 (some centres not stated) | Gaussia minus Italica difference -20.24%
- CO[C@H]1CN(C)C(=O)c2cc(NC(=O)Nc3ccc(Cl)c(Cl)c3)ccc2OC[C@H](C)NC[C@H]1C | Gaussia minus Italica difference 2.522%

Source: PubChem BioAssay AID1224904 (Broad Institute, 2016).